Assay results reported in PMC8574036.
No constants are given. Whether binding was seen depends on the method and setting. Binding seen in cells or lysates may run through a third protein. Some binding calls cover weakened binding; strength is not graded here.

The chains behind the UniProt entries cited, without tags or fusion partners.
UniProt P51668: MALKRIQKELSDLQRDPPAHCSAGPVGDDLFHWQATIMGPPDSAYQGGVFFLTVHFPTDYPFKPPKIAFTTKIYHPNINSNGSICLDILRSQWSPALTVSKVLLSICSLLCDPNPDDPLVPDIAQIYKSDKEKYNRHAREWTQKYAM
UniProt Q13485: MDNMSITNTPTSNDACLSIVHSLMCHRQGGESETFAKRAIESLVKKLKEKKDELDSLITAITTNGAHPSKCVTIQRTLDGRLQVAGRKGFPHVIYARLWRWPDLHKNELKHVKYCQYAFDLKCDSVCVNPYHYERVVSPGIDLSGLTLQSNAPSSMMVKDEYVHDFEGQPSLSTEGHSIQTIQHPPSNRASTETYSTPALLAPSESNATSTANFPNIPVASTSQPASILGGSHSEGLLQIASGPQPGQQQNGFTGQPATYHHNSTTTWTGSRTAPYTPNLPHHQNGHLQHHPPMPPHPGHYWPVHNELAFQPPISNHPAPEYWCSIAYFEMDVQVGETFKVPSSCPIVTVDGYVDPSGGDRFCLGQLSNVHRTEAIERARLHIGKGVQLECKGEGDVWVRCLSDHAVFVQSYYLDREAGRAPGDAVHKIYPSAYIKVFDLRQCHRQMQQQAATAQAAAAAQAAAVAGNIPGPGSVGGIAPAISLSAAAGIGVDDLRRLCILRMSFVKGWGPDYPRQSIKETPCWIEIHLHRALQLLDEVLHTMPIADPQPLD

Target: ubiquitin-conjugating enzyme E2 D1 (UBE2D1) (human (in lysates of human cell lines; which line is not stated)) (UniProt P51668)
Assay: co-IP; whole cellular lysates (RIPA lysis buffer) incubated with anti-UBE2D1 or anti-SMAD4 at 4 °C overnight, then protein A/G PLUS-Agarose beads at 4 °C for 2 h; eluted proteins detected by western blot with antibodies against SMAD4 or UBE2D1

binding: binds
Substance: mothers against decapentaplegic homolog 4 (SMAD4) (from UniProt Q13485 1-552)
